In US20240117054A1 (DRAGONFLY THERAPEUTICS, published 2024):
Residue numbers refer to the chain shown, from its start. Results are given in words; binding and its absence hold for the method and conditions named. Some binding calls cover weakened binding; strength is not graded here. Blank lines part the entries; values can stand above or below the binder they belong to.

Sequences of proteins named here, by UniProt entry; tags and fusion partners are left off. Residues count along the entry.
UniProt P36888, residues 27-541: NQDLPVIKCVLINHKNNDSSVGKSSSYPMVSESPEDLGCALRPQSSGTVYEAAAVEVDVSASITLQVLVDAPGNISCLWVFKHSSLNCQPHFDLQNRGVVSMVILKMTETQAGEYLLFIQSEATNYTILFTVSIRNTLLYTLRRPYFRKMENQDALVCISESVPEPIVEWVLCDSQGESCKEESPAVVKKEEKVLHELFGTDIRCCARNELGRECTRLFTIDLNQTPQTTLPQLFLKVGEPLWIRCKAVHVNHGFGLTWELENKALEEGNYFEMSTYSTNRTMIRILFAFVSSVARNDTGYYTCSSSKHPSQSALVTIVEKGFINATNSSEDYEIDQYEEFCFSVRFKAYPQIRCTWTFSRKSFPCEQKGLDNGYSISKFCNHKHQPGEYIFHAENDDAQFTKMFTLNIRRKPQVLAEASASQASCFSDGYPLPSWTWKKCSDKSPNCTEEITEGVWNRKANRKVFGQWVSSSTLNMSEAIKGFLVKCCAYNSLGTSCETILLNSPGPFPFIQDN

Key:
[1] = biological target: cynomolgus monkey FLT3 (cFLT3) expressed on RMA cells (cynomolgus monkey); experiment: flow cytometry, purified mAb on RMA-cFLT3 cells
hFLT3-His fusion protein = biological target: T1, hFLT3-His fusion protein (human, UniProt P36888 27-541, limits assumed); experiment: SPR, purified murine subclone, hFLT3-His, 1:1 binding fit
T1 construct: Soluble recombinant antigen used for immunisation, ELISA, SPR and BLI binning; also called recombinant hFLT3 protein; not shown: His tag

[2] = biological target: cynomolgus monkey FLT3 (cFLT3) expressed on RMA cells (cynomolgus monkey); experiment: flow cytometry on RMA-cFLT3 cells, anti-human IgG secondary
[3] = biological target: cynomolgus monkey FLT3 (cFLT3) expressed on RMA cells (cynomolgus monkey); experiment: flow cytometry on RMA-cFLT3 cells, anti-human IgG secondary antibody, fold over background (FOB)

B3: 4A4.H7 (antibody, V domains shown)
VH: EVQLQESGPELVKPGASVKISCKASGYSFTGYYIHWVKQSPEESLEWIGEIYPNTGITTYNQKFTAKATLTVDKSSNTAYMQLKSLTSEDSAVYYCTRWGDYYGRDYWGQGTSVTVSS
VL: DIVLTQSPASLAVSLGQRATISCRASETVDTHGNSFMHWYQQKPGQPPKLLIYRASNLESGIPARFSGSGSRTDFTLTINPVEADDVATYYCQQSNEDPRTFGGGTKLEIK
binding (hFLT3-His fusion protein): binds

B6: GB102 monoclonal antibody in the human IgG1 format (antibody, V domains shown)
VH: QVQLVQSGAEVKKPGASVKVSCKASGYTFTRYVMHWVRQAPGQRLEWMGFINPYNDDTKYNEKFKGRVTITRDTSASTAYMELSSLRSEDTAVYYCARWRQLGSLDSWGQGTTVTVSS
VL: DIVMTQSPDSLAVSLGERATINCRASESVDTYGSSFVHWYQQKPGQPPKLLIYLASNLESGVPDRFSGSGSGTDFTLTISSLQAEDVAVYYCQQNNEEPWTFGGGTKVEIK
notes: also called parental mAb
binding [2]: binds | binding [3]: binds

B8: 4A4.A3 (antibody, V domains shown)
VH: QVTLKESGPGILQPSQTLSLTCSFSGFSLTTYGMGVGWIRQPSGKGLEWLANIWFNDNKYYNSTLKSRLTISKDTSNNQVFLKISSVDTTDTATYYCAQITTVVGTFDYWGQGSPLTVSP
VL: RIVMTQSPTTMAASPGEKITITCSASSSISSIYLHWYQQKPGFSPKLLIFRTSDLASGVPPRFGGSGSGTSYSLTIGTMEAEDVATYYCQQGSSFPRTFGGGTKLEIK
notes: Purified murine mAb from a hybridoma subclone
binding [1]: binds

B9: 4H2.E3 (antibody, V domains shown)
VH: EVQLQESGPELVKPGASVKMSCKASGYTFTSYLMHWMKQKPGQGLEWIGYINPYSDGIKYNEKFRDKATLTSDKSSNTAYMELSSLTSEDSAVYYCAHSSGYVGYAMDYWGQGTSVTVSS
VL: GIVMTQTTPSVPVTPGESVSISCRSSKSLLHSNGNTYLYWFLQRPGQSPQLLIYRMSNLASGVPDRFSGSGSGTTFTLRISRVEAEDVGVYYCMQHLEYPFTFGSGTKLEIK
notes: as for B8
binding [1]: binds

The next lines start with the values.

binding [1]: binds
B1: 14A5.E8 (antibody, V domains shown)
VH: EVQLQESGAELVQPGASVRLSCKASGYTFTSYWINWVKQRPGQGLEWIGNIYPGSSIINYNENFKNRATLTVDTSSSTAYMQLSSLTSDDSAVYYCARRVVYLYFDYWGQGTTLTVSS
VL: QIVLTQSPAIMSASPGEKVTMTCSASSSVSYMHWYQQKSGTSPKRWIYDTSKLASGVPARFSGSGSGTSYSLTISSMEAEDAATYYCQQWTSKSPTFGGGTKLEIK
notes: as for B8

binding [1]: binds
B2: 15A11.C8 (antibody, V domains shown)
VH: EVQLQESGGGLVKTGGSRKLSCAASGFTFSDYGMHWVRHTPEKGLEWVVYISSGGNTIFYTDTVKGRFTISRDNAKNTLFLQMTSLRSEDTAVYFCVRQGYYYAMDYWGQGASVTVSS
VL: DIQMTQTTSSLSASLGDRVTIRCRASQDITNYLNWYQQKPDGAVKLLISYTSILQSGVPSRFSGSGSGTDYSLTISNLEQGDVATYFCQQGSSLPWTFGGGTKLEIK
notes: as for B8

binding [1]: binds
B4: 11F4.B9 (antibody, V domains shown)
VH: B3 VH with S40G, E43K, Y52I, N54S, I57S, T59I, T65K, N77S, M81L, T97E
VL: B3 VL with T28S, T31I, H32Y
notes: as for B8

binding [1]: binds
B5: 1A2.A3 (antibody, V domains shown)
VH: B3 VH
VL: B3 VL
notes: as for B8

binding [1]: binds
B7: 12H10.G7 (antibody, V domains shown)
VH: EVQLQESGPELVKPGASVKMSCKASGYTFTRYVMHWVKQRPGQGLEWIGFINPYNDDTKYNEKFKGKATLTSDKSSSTAYMELSSLTSEDSAVYHCARWRQLGSLDSWGQGTTLTVSS
VL: NIVLTQSPASLAVSLGQRATISCRASESVDTYGSSFVHWYQQKPGQPPKLLIYLASNLESGVPARFSGSGSRSDFTLTIDPVEADDAATYYCQQNNEEPWTFGGGTKLEIK
notes: as for B8
